In US5112863A, “Antipsychotic drug” (Nippon Oil & Fats Co., Ltd., priority 1989, dated 1992):
At least one compound was matched to its structure with a doubt left.

Tested on: Wistar rats
Test: Antipsychotic action test: phencyclidine-induced locomotor activity and stereotypy (method of Sturgen et al.)
Assay type: in vivo
Conditions: phencyclidine-dosed rats; dose not stated
Experimental: Method: the action of antipsychotic was estimated by a method of Sturgen et al. (Eur. J. Pharmacol 76, 37-53, 1981). Namely, medicines suspended in 0.1% Tween 80 were dosed in the abdomen of Wistar rats (Weight: 200-250 g, 6 rats/group). After ten minutes, phencyclidine dissolved in physiological saline (10 mg/kg) was dosed intraperitoneally. After ten minutes, locomotor activity and stereotypy score were estimated at intervals of 20 minutes by 6 grades.
1. Sometimes, movement within localized area of cage.
2. Movement over a small area of cage, intermittent activity emitted at a low-moderate rate.
3. Movement over a small area of cage, activity emitted continuously and at a moderate-rapid rate.
4. Movement over a large area of cage, activety is intermittent and emitted at a low-moderate rate.
5. Movement over a large area of cage, activety is emitted continuously and at a moderate-rapid rate.
1. Locomotor activity, sniffing and grooming more frequent than observed for control.
2. Higher frequency of sniffing, rearing or turning than in 1.
3. Moderate rate and intermittent sniffing, rearing, turning or backpedaling.
4. Rapid rate and continuous turning, backpedaling, sniffing.
5. Dyokinetic extension and flexion of limbs, head and neck.

CC/C=C\C/C=C\C/C=C\C/C=C\C/C=C\C/C=C\CCC(=O)N[C@H](C)C(=O)O [N-docosahexaenoyl-D-alanine]
Effect on locomotor activity and stereotypy score compared with NMD-Ser and NMD-Ala: the same effect is observed

CC/C=C\C/C=C\C/C=C\C/C=C\C/C=C\C/C=C\CCC(=O)N[C@H](CO)C(=O)O [N-docosahexaenoyl-D-serine]
Effect on locomotor activity and stereotypy score compared with NMD-Ser and NMD-Ala: the same effect is observed
